Source: the supplement of paper PMC10849652
This is one part of the list.

The chains behind the UniProt entries cited, without tags or fusion partners. Where a name states a change or a piece, a line headed by the entry shows the natural chain unless it says otherwise.
UniProt Q969G6: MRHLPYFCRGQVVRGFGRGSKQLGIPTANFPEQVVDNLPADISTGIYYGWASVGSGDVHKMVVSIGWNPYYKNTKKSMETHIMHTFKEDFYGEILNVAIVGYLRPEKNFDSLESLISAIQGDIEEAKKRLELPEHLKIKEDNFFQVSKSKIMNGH
UniProt Q9BWE0: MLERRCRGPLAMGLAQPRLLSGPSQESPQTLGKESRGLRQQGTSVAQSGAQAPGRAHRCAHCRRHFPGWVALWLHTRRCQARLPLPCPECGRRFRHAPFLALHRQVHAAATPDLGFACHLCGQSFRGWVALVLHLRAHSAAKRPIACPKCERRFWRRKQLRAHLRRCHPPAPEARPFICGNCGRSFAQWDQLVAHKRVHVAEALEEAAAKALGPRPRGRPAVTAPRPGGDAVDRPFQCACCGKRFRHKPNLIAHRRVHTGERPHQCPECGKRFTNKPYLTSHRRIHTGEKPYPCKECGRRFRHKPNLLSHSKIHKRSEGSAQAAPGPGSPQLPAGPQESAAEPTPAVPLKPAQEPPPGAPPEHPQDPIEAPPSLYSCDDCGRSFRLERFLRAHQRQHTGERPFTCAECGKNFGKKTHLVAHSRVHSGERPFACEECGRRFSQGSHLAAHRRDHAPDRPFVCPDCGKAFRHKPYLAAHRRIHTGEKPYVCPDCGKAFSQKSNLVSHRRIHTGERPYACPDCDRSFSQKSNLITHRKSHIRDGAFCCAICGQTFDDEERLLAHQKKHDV
UniProt O43353, whole entry, looked up: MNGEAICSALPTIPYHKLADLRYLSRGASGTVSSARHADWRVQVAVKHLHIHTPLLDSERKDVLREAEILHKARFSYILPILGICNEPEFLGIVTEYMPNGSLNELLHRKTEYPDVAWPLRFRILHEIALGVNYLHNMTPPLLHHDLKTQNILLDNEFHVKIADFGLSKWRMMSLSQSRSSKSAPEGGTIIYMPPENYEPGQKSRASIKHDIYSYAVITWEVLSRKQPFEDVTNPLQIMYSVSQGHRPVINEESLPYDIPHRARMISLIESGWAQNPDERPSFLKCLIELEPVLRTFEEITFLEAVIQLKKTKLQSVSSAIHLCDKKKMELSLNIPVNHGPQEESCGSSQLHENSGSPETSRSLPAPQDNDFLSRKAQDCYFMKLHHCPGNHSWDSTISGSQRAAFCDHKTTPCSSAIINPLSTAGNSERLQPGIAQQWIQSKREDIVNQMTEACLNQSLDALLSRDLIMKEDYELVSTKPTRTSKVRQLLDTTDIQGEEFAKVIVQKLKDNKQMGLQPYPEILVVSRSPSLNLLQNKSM
UniProt Q96PM5: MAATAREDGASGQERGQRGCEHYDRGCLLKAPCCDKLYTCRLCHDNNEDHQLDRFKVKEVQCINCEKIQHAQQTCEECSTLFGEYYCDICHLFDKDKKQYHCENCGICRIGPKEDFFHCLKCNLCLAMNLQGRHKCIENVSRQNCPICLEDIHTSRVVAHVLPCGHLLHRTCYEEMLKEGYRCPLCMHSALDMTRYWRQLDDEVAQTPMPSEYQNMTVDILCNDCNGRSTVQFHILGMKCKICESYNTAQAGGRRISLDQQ
UniProt Q9P0P0: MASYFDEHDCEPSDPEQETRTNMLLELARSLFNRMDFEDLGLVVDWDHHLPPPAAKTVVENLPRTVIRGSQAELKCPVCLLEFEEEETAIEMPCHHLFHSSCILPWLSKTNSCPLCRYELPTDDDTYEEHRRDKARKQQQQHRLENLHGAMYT
UniProt Q9BWF3: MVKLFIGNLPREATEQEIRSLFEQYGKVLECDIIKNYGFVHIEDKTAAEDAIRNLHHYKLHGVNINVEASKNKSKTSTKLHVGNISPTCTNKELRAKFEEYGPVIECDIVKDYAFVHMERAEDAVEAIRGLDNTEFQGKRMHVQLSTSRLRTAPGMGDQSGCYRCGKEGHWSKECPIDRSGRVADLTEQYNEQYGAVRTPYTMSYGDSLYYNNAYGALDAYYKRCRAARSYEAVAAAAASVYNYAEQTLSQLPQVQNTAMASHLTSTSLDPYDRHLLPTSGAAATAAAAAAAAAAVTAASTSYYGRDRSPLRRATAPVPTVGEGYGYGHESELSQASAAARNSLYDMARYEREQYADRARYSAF
UniProt Q96DB5: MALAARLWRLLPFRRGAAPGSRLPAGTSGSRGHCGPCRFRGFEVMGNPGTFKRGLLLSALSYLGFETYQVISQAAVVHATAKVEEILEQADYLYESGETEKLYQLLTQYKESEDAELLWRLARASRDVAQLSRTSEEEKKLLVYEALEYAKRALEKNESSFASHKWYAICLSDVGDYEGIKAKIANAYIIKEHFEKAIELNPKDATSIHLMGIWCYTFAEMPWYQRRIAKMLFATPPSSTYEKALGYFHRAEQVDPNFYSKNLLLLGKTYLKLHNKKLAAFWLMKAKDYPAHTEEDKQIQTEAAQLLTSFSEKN
UniProt P82980: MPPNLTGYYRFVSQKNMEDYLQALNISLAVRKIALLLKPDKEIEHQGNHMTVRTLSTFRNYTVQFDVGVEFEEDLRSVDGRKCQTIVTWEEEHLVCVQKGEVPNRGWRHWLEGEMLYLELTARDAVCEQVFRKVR
UniProt Q8WVD3: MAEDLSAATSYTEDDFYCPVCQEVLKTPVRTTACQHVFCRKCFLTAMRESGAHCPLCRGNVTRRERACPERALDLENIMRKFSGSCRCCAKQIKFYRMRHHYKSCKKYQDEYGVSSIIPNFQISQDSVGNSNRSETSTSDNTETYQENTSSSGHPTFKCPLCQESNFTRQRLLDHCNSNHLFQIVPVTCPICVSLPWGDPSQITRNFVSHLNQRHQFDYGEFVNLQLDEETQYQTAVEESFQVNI
UniProt Q96K19: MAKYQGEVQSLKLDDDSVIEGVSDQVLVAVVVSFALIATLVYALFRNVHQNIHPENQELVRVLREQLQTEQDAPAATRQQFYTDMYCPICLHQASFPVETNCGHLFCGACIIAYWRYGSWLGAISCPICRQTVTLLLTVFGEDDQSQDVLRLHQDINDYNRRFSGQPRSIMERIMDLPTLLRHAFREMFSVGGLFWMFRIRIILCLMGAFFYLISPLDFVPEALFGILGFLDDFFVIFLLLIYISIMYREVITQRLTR
UniProt P35249, whole entry, looked up: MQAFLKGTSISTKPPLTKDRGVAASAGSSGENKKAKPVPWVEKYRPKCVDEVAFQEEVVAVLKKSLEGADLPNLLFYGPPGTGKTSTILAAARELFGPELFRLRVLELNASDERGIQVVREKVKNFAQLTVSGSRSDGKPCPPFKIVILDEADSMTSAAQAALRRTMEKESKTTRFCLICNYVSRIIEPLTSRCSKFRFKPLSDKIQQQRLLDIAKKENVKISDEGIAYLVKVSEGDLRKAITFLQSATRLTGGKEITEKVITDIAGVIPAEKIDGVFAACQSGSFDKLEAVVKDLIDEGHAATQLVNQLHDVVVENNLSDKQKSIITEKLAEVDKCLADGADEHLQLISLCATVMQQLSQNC
UniProt Q5UIP0: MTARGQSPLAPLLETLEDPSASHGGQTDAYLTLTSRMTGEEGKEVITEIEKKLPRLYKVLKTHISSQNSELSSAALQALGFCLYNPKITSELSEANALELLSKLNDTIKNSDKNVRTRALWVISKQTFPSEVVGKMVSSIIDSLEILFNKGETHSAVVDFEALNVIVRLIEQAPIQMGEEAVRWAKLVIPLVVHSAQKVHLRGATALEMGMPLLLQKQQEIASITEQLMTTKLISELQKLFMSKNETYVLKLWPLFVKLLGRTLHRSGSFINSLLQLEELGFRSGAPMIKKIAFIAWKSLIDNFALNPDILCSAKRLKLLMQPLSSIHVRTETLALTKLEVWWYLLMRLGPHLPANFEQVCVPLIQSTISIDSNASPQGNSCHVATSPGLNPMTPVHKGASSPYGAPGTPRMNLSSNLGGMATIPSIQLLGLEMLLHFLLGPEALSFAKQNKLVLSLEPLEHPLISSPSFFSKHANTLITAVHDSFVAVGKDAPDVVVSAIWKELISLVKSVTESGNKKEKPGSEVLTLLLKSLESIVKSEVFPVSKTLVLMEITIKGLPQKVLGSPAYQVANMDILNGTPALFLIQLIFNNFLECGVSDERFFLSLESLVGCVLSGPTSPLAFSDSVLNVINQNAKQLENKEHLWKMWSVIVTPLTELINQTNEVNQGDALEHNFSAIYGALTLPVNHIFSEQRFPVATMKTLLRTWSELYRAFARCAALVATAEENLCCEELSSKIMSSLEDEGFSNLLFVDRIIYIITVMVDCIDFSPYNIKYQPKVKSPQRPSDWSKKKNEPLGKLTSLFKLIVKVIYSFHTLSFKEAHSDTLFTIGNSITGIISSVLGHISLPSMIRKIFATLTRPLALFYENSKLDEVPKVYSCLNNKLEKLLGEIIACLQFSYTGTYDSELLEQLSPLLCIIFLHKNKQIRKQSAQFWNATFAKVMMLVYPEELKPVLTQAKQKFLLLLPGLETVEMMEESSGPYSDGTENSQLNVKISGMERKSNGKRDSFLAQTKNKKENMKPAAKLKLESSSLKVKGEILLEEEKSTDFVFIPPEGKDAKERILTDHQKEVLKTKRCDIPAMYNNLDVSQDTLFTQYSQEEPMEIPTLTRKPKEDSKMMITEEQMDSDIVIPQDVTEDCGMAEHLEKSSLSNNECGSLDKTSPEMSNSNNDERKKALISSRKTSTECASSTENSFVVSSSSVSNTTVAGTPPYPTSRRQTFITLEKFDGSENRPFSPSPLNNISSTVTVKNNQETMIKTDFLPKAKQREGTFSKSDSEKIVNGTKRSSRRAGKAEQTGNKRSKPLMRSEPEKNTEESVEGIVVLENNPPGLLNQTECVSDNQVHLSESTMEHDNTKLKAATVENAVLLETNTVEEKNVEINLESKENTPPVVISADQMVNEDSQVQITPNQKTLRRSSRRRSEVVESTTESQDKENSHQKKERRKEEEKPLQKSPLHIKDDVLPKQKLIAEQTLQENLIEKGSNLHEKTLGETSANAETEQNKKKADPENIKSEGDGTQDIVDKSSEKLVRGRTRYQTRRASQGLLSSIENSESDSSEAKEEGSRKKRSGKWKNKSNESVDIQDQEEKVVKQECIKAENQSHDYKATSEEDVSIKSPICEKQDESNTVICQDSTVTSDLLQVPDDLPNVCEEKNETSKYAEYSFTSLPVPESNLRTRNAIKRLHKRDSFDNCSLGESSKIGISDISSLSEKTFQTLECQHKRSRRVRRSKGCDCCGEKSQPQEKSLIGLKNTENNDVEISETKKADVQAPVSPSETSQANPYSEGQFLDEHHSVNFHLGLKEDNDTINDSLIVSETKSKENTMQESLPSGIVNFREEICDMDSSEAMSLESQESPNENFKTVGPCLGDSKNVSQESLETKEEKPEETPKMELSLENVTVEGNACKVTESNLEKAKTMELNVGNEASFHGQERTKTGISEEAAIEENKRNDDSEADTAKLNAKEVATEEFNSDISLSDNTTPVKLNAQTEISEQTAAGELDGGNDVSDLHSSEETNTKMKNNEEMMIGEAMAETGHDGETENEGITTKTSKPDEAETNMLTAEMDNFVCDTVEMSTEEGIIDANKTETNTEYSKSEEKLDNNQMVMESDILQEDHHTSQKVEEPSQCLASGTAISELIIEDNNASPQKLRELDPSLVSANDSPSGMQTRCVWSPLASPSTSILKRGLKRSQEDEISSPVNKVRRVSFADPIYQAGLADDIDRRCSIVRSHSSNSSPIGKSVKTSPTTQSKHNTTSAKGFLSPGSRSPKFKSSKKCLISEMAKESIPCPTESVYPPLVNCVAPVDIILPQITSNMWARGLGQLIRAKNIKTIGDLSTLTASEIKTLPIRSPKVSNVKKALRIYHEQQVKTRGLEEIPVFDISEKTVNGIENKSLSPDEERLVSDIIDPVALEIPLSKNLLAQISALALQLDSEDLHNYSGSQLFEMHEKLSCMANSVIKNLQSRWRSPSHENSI
UniProt P35250, whole entry, looked up: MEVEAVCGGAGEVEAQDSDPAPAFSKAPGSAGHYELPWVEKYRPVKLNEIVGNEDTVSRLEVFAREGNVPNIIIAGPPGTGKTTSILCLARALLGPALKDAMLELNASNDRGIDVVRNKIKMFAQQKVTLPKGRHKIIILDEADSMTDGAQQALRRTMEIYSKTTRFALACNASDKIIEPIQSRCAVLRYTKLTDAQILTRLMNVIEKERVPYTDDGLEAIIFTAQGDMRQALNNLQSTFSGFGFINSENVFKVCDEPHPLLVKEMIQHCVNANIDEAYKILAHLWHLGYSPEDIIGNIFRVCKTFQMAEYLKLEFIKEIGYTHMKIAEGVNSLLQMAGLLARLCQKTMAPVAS
UniProt Q8WZ73: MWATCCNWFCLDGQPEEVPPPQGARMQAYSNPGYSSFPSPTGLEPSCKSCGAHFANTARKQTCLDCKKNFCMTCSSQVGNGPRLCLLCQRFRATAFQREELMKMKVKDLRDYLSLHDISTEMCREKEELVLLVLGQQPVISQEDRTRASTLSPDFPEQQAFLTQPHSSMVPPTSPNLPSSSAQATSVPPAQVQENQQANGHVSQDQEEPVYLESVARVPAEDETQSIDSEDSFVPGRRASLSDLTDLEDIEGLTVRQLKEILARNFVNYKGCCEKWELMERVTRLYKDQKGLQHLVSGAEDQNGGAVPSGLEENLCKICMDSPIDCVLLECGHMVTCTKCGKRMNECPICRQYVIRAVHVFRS

Compound: CCn1cc(-c2ccnc3[nH]c(-c4cccc(CN(C)C)c4)cc23)c(-c2ccc(NC(=O)N(C)C)cc2)n1
Assay: log2 fold change, soluble protein after heating vs DMSO (PISA); higher = thermal stabilisation; K562 cells, 10 uM, 30 min; active = over 0.2 and 3.5 SD of the protein, either way, in both replicates (recomputed)
Method in brief: (§1)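 Quantification of soluble protein used TMTpro 16plex LC-MS/MS, with channel sums equalised. Samples were the supernatant after 21,000xg for 90 min of pooled aliquots from K562 cells (2×10^6 cells/mL) treated with 10 μM compound for 30 min, heated for 3 min over 48°C-58°C, and extracted in PBS with 0.5% NP-40 at 4°C. Values, from duplicates, describe thermal stability against control samples on a log2 fold-change scale.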

log2 fold change, inactive:
RELN (UniProt P78509) -0.002
RING1 (UniProt Q06587) -0.114
RNF14 (UniProt Q9UBS8) -0.032
RNASE4 (UniProt P34096) -0.104
RBM42 (UniProt Q9BTD8) 0.177
RFC5 (UniProt P40937) -0.019
REPS1 (UniProt Q96D71) 0.152
RFK (UniProt Q969G6) -0.051
RNF126 (UniProt Q9BV68) -0.064
REPIN1 isoform 4 (UniProt Q9BWE0) -0.015
RIPK2 (UniProt O43353) -0.062
RCHY1 (UniProt Q96PM5) 0.056
RHOG (UniProt P84095) 0.012
RNF181 (UniProt Q9P0P0) 0.014
RHOC (UniProt P08134) -0.034
RBM4 (UniProt Q9BWF3) 0.059
RMDN1 (UniProt Q96DB5) -0.062
RIDA (UniProt P52758) 0.003
RILP (UniProt Q96NA2) -0.017
RNF20 (UniProt Q5VTR2) -0.047
RNASEH2B (UniProt Q5TBB1) -0.165
RBM7 (UniProt Q9Y580) 0.012
RCC1 isoform 2 (UniProt P18754) -0.02
RBP5 (UniProt P82980) -0.146
RNF138 (UniProt Q8WVD3) 0.034
RNF170 (UniProt Q96K19) 0.127
RMND5A (UniProt Q9H871) 0.042
RFC4 (UniProt P35249) -0.052
RIF1 (UniProt Q5UIP0) -0.039
RNF220 (UniProt Q5VTB9) -0.043
REEP3 (UniProt Q6NUK4) 0.02
RCCD1 (UniProt A6NED2) -0.072
RCC2 (UniProt Q9P258) -0.002
RFC2 (UniProt P35250) -0.028
RFESD isoform 2 (UniProt Q8TAC1) -0.043
RIOK2 (UniProt Q9BVS4) -0.013

Compound: CN(C)CC(=O)Nc1ccc2[nH]c(=O)c3ccccc3c2c1
Assay: as above
Method in brief: as §1

log2 fold change, inactive:
RELN (UniProt P78509) -0.051
RING1 (UniProt Q06587) 0.197
RNF14 (UniProt Q9UBS8) -0.019
RNASE4 (UniProt P34096) -0.097
RBM42 (UniProt Q9BTD8) -0.015
RFC5 (UniProt P40937) 0.01
REPS1 (UniProt Q96D71) -0.072
RFK (UniProt Q969G6) 0
RNF126 (UniProt Q9BV68) -0.03
RFFL (UniProt Q8WZ73) -0.02
REPIN1 isoform 4 (UniProt Q9BWE0) 0.024
RIPK2 (UniProt O43353) 0.05
RCHY1 (UniProt Q96PM5) 0.001
RHOG (UniProt P84095) -0.019
RNF181 (UniProt Q9P0P0) -0.021
RHOC (UniProt P08134) 0.016
RBM4 (UniProt Q9BWF3) -0.024
RMDN1 (UniProt Q96DB5) 0.013
RIDA (UniProt P52758) 0.003
RILP (UniProt Q96NA2) 0.002
RNASEH2B (UniProt Q5TBB1) 0.089
RBM7 (UniProt Q9Y580) -0.01
RCC1 isoform 2 (UniProt P18754) 0.168
RNF138 (UniProt Q8WVD3) 0
RNF170 (UniProt Q96K19) 0.23
RMND5A (UniProt Q9H871) 0.006
RFC4 (UniProt P35249) 0.014
RFXAP (UniProt O00287) -0.018
RIF1 (UniProt Q5UIP0) -0.015
RNF220 (UniProt Q5VTB9) -0.03
REEP3 (UniProt Q6NUK4) 0.061
RCCD1 (UniProt A6NED2) -0.012
RCC2 (UniProt Q9P258) 0.012
RFC2 (UniProt P35250) -0.001
RFESD isoform 2 (UniProt Q8TAC1) -0.043
RIOK2 (UniProt Q9BVS4) -0.038
